Measurements from PMC6846684.

The chains behind the UniProt entries cited, without tags or fusion partners. Where a name states a change or a piece, a line headed by the entry shows the natural chain unless it says otherwise.
UniProt Q03532: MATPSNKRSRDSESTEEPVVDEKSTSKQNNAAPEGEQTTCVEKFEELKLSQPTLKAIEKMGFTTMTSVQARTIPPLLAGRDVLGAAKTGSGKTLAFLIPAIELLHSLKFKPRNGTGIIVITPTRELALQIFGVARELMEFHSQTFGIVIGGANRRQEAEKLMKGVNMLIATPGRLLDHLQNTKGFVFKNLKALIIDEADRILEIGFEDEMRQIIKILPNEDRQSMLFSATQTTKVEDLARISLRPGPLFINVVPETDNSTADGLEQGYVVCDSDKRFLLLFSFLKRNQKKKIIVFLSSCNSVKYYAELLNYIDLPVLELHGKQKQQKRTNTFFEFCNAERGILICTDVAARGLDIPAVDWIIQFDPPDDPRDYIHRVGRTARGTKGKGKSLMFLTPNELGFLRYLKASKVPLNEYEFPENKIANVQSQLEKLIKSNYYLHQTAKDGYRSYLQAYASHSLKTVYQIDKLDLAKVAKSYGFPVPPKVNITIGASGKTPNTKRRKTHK
UniProt P40160: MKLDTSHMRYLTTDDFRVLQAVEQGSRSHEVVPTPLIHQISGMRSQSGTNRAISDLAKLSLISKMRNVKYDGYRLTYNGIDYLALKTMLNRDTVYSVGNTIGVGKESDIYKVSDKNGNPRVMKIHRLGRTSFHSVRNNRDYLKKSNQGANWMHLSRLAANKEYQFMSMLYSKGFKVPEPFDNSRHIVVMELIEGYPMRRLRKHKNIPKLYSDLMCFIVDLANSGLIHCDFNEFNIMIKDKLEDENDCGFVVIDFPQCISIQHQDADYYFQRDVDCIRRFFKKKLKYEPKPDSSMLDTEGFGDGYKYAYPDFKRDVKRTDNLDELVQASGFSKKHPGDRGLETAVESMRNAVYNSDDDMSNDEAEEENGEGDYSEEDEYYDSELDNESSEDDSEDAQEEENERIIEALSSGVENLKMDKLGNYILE

Legend:
[1] = molecular target: Has1-FTP (wild type Has1 with FLAG-TEV-protein-A tag) (S. cerevisiae) (UniProt Q03532); test: affinity purification with mass spectrometry; tandem affinity purification via Has1-FTP (IgG-Sepharose, TEV elution, anti-FLAG resin, FLAG peptide elution; 100 mM NaCl, 50 mM Tris-HCl pH 7.4, 5 mM MgCl2); FLAG eluate fractionated on a 10-40% sucrose gradient; proteins of fraction 6 (pre-40S) resolved by SDS-PAGE and identified by MALDI-TOF
[2] = molecular target: Has1-KA-FTP (motif I mutant K92A) (S. cerevisiae) (UniProt Q03532); test: affinity purification with mass spectrometry; SILAC: wild type Has1-FTP culture in heavy medium mixed in equal amounts with a mutant Has1-FTP culture in light medium; endogenous Has1 depleted for 4 hours with doxycycline; tandem affinity purification via the FTP tag; FLAG eluate analysed by nLC-MS/MS; data of the three mutants pooled
[3] = molecular target: Has1-FTP (wild type Has1 with FLAG-TEV-protein-A tag) (S. cerevisiae) (UniProt Q03532); test: as above
[4] = molecular target: Has1-AAA-FTP (motif III mutant S228A/T230A) (S. cerevisiae) (UniProt Q03532); test: as above
[5] = molecular target: Has1-DAAD-FTP (motif II mutant E197A) (S. cerevisiae) (UniProt Q03532); test: as above

Measured: binding

Rio2 (from UniProt P40160 1-425)
binds: [1]

B1: Enp1 (protein, UniProt P38333 1-483)
chain: MARASSTKARKQRHDPLLKDLDAAQGTLKKINKKKLAQNDAANHDAANEEDGYIDSKASRKILQLAKEQQDEIEGEELAESERNKQFEARFTTMSYDDEDEDEDEDEEAFGEDISDFEPEGDYKEEEEIVEIDEEDAAMFEQYFKKSDDFNSLSGSYNLADKIMASIREKESQVEDMQDDEPLANEQNTSRGNISSGLKSGEGVALPEKVIKAYTTVGSILKTWTHGKLPKLFKVIPSLRNWQDVIYVTNPEEWSPHVVYEATKLFVSNLTAKESQKFINLILLERFRDNIETSEDHSLNYHIYRAVKKSLYKPSAFFKGFLFPLVETGCNVREATIAGSVLAKVSVPALHSSAALSYLLRLPFSPPTTVFIKILLDKKYALPYQTVDDCVYYFMRFRILDDGSNGEDATRVLPVIWHKAFLTFAQRYKNDITQDQRDFLLETVRQRGHKDIGPEIRRELLAGASREFVDPQEANDDLMIDVN
binds: all assays above

B2: Tsr1 (protein, UniProt Q07381 1-788)
chain: MAGHSHRSSLKNGHKSYKSKHASKGALKRLYKGKVEKEPVGTGKPDKQVSKLQRKNKAKQLRAQRILDSIENRKLFEGKNGAAKIITIVPLVNDLDPLDILYKLLKCADDEGIMVQEVDSKRIFNVHIKKFKSNLKIIIPDMTNFLNILDCAKVADFVVFGLSGVQEVDEEFGEQIIRALELQGIASYIGVISNLSAVHEKEKFQLDVKQSLESYFKHFFPSEERVYNLEKNSDALNVLRTLCQRLPRSINWRDNRGYVVADFVDFVETSPDSGDLVIEGTVRGIGFNANRLVHIPDFGDFQLNKIEKISESSQKRKIIKEKATDSLSLELDLQTVFESNMNRDTLDEYAPEGTEDWSDYDEDFEYDGLTTARYDDHGFLPGREQTSKKAAVPKGTSDYQAKWYLDDVIDANEEEEAEQTNGKDETMMEIDDEMMVEQDNEEVAGDEEYDIEDNEGFEELSPEEEERQLREFRDMEKEDREFPDEIELEPSESAIERLKRYRGLKNLYNCDWQVDEKDPSSPAEWKRLLRIGNYKNTKNRIIKETKNEAQAIAGDRIRMFIRFPKFLLEKIQDPKQLLFAVYGLLLHEHKNAVVNFSLQRWEQYDKPVPSQEPIVVQYGVRRYTIQPLFSQGSNSPNNVHKYERFLHPDTVSVATCIAPVDFTQSPAIFFKPSPTDAKNIELIGHGTFLNADHSRILAKRAILTGHPFRFHKTVVTVRYMFFRPEDVEWFKSIPLFTKSGRSGFIKESLGTHGYFKATFDGKLSAQDVVAMSLYKRMWPMPSLPWNGM
binds: all assays above

B3: Rrp12 (protein, UniProt Q12754 1-1228)
chain: MDQDKVAFLLELEDKLAKIRSQVNSKLENQKHIAIILTAVEENIAGQATNDVSKNIVNYIISFMSLLDQAVDPSTHEIKDIQLASSSTYLLDLIFHYSPKVLLRSKFSEILTKIAPCITAEKANAPLIRAAIGCLESLLIAQDAQAWNNTYDLNVTPKRGLQGILELSLDVRPKVRKRALDAVHAVLLNPPVAPTAEHVAAVFVADFCDKQLAGILNDLSNLSNKQLKAQKTKEDINASVMRSLRLITSVVSTGQWPSSQIEPLCDVLLGVTKSSEQYLVSASFECFESMFKTMAETTISSGLAENKYLRVLDTIFALKPSNVDTLLTKSWIAVVIKGMSTYATHQPLKALRKIPGVFHIMCTYLASETPEVYQAASQCLISILSESVKDDLLLYTPSVDEKVFKNVDEIISQIAKTFIDFLSIRYSHCSREILKILVAAFNKFRYRSNPHFLKSLKIVDTWRVNEEQFMDLRNEIELVIGASISAMGPEMILAEAPLNLDNPSSERPGRAWLLPLIRDYTKNANLATFQNELAPYIKSFQSKFDKVPEESIQLRVFQTIVDQIWSTLPRFCELPMDLRESFTDEFASELSSLLYSEVELRTTICHALKVLAESNVSYAEESSSHNVLLLQRFPISEAQKNIEYLSTKSTNLLAVLFNVYTQTTPNARSYILETIDQYLKITSKEDLEKTFNNVCGLLKNSMNEESSGNVNKEKKKPQLTATLLDLIICMITYLPVSSYSALFSMFSLTVNSADALIQKRAYRIITKLSELKSGSTAVAQFISDIENVMVDSASSVQTSAKAARLTAIKTIVELLPLDHLDFIVRTVAEVILSTKDVNEKSRETAFDTLICMGRKMNEPNGIIKLFQIPGYDPTTPDQSSSISEFFKIISAGLIGESQHMVSSSITGYACLVFEFKNELDSGILMDIYDTIELYLTSNSREIVKSAIGFTKVCVLGLPEELMRPKVPELLLKLLRWSHEHTGHFKAKVKHIIERLIRRFGYDYIEANFPEEDRRLLTNIRKMRNRNKRKDEEVTTGVSDVAATKGSRFMSAFDEAVYGSDEENDNGSDQEENVAGGKMKNGAKQFIVESGDNPLDLLDSQTLAHISSTRPKKFNKNQNRARFNDDAFNFDSEGKLVVKGQPKPSTNVDDPLSAVTSGINAYLEAVKSGPVRGQRNKLKFRKNGKDSDEFGDDDDGEKDSRLMRGRVNQGNKIGKHNKKGPKFKSRKKL
not listed: [1]
binds: all other assays above

B4: Ltv1 (protein, UniProt P34078 1-463)
chain: MSKKFSSKNSQRYVVVHRPHDDPSFYDTDASAHVLVPVSNPNKTSPEADLRKKDVSSTKPKGRRAHVGEAALYGINFDDSEYDYTQHLKPIGLDPENSIFIASKGNEQKVEKKNIEDLFIEPKYRRDEIEKDDALPVFQRGMAKPEYLLHQQDTTDEIRGFKPDMNPALREVLEALEDEAYVVNDDVVVEDISKKTQLQGDNYGEEEKEDDIFAQLLGSGEAKDEDEFEDEFDEWDIDNVENFEDENYVKEMAQFDNIENLEDLENIDYQADVRRFQKDNSILEKHNSDDEFSNAGLDSVNPSEEEDVLGELPSIQDKSKTGKKKRKSRQKKGAMSDVSGFSMSSSAIARTETMTVLDDQYDQIINGYENYEEELEEDEEQNYQPFDMSAERSDFESMLDDFLDNYELESGGRKLAKKDKEIERLKEAADEVSKGKLSQRRNRERQEKKKLEKVTNTLSSLKF
binds: [1]

No constants are given. Whether binding was seen depends on the method and setting. Binding seen in cells or lysates may run through a third protein. These calls come from enrichment with a bait or labelling near it, and not all partners need be listed.
